Measured data: PubChem BioAssay AID652259 (Drosophila RNAi Screening Center, 2013)
The deposit covers about 22,000 reagents; shown is an unselected part of those with a known target gene and a result. In the full data, 233 (1.1%) are marked active. 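Light values are raw, unnormalised plate reads; the ratio scores behind the reporter calls were not deposited.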 A plus sign joins genes that one reagent is predicted to hit. No sequences are given here. Not given: the amount of reagent, the time to read-out, the dose of the treatment.

- Test: 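Genome-wide hunt for genes that control Wingless pathway activity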 (primary screen)
- Cell system: Drosophila clone 8 imaginal disc epithelial cells
- Reagent: long dsRNA against Drosophila genes
- Challenge: pathway stimulated by co-transfected Wingless expression plasmid
- Measurement: 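Dual luciferase reads per well after Wingless plasmid stimulation: reporter firefly light and Renilla control light; activity is firefly divided by Renilla, a ratio not deposited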
- Direction: firefly reporter light: higher = more Wg reporter light, before normalisation; Renilla control light: higher = more transfected or surviving cells
- Rule for the call: 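a knock-down is a candidate when at least two out of four statistical tests show it departing from its plate mean; one test alone signals a weak candidate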
- Calls: active = candidate regulator (raises or lowers reporter); inactive = not a candidate

no.	Gene	amplicon	reporter change call, replicate 1	firefly reporter light, replicate 1	firefly reporter light, replicate 2	Renilla control light, replicate 1	Renilla control light, replicate 2	activity call
1	pins (partner of inscuteable)	DRSC17043		5299		2736		inactive
2	spz6 (spatzle 6)	DRSC04533		11387		4252		inactive
3	CG42367	DRSC21388		6.30e5	7.41e5	3.15e5	3.11e5	inactive
4	IntS10 (Integrator 10)	DRSC08173		5686		2593		inactive
5	CG31957	DRSC00207		18200		9393		inactive
6	Ets65A (Ets at 65A)	DRSC09968		967	7160	805	2756	inactive
7	Ets65A (Ets at 65A)	DRSC10738		2784		1851		inactive
8	Ets65A (Ets at 65A)	DRSC11164		5761		2706		inactive
9	beta3GalTII (beta-1,3-Galactosyltransferase II)	DRSC07253		2458	5639	901	2433	inactive
10	CG32262	DRSC08165		6373		2914		inactive
11	Dpy-30L2 (Dpy-30-like 2)	DRSC08205		8036		3909		inactive
12	CG7094	DRSC03005		2073	4691	864	2981	inactive
13	CG12470	DRSC18620		34838		19079		inactive
14	ATPsynbetaL (ATP synthase, beta subunit-like)	DRSC10503		6164		2597		inactive
15	mRNA-cap (mRNA-capping-enzyme)	DRSC19789	Wg reporter activity raised	25058		8682		inactive
16	CG3045	DRSC04331		10882		2969		inactive
17	JMJD7 (Jumonji domain containing 7)	DRSC09703		4805		1576		inactive
18	Ipk2 (Inositol phosphate kinase 2)	DRSC00357		3072	7413	1266	3261	inactive
19	Shmt (Serine hydroxymethyl transferase)	DRSC18264		17076		7953		inactive
20	CG3793	DRSC01982		8988		2725		inactive
21	CG42662 + CG30080	DRSC05571		21003		20656		inactive
22	Hacl (2-hydroxyacyl-CoA lyase)	DRSC06061		16929		5290		inactive
23	CG6951	DRSC10755		8426		2171		inactive
24	mRpL41 (mitochondrial ribosomal protein L41)	DRSC06257		4851		1900		inactive
25	CG31287	DRSC13138		2459		482		inactive
26	CG5532	DRSC04509		3014		835		inactive
27	CG13999	DRSC02331		2081	5483	885	933	inactive
28	ND-51L1 (NADH dehydrogenase (ubiquinone) 51 kDa subunit-like 1)	DRSC06072		4587		1881		inactive
29	Ts (Thymidylate synthase)	DRSC00795		3872	8294	1195	2400	inactive
30	Ts (Thymidylate synthase)	DRSC22168		4.58e5	5.60e5	2.20e5	2.23e5	inactive
31	Adgf-E (Adenosine deaminase-related growth factor E)	DRSC05973		7400		2839		inactive
32	Tsf1 (Transferrin 1)	DRSC20296		24613		14752		inactive
33	Agpat1 (1-Acylglycerol-3-phosphate O-acyltransferase 1)	DRSC19879		15852		6998		inactive
34	Agpat1 (1-Acylglycerol-3-phosphate O-acyltransferase 1)	DRSC19880		19803		10602		inactive
35	Cortactin	DRSC16612		2955	8097	1617	1792	inactive
36	CG13856	DRSC14706		37364		7280		inactive
37	CG17359	DRSC10265		6669		2570		inactive
38	CG32069 + Blos2	DRSC10621		5041		2192		inactive
39	Tao	DRSC19573		5521	10064	1399	2892	inactive
40	Tao	DRSC19574		20939		11624		inactive
41	Tao	DRSC22639		8.62e5	6.25e5	3.94e5	296	inactive
42	bark (bark beetle)	DRSC00635		3216	6501	938	2933	inactive
43	HemK1 (HemK methyltransferase 1)	DRSC03253		9537		4119		inactive
44	CG11155	DRSC17184		4274		1680		inactive
45	CG11155	DRSC17205		2227	5226	873	1604	inactive
46	CG9988	DRSC16587		7488		1872		inactive
47	PK2-R2 (Pyrokinin 2 receptor 2)	DRSC16448		8330		3408		inactive
48	Tsp42Eg (Tetraspanin 42Eg)	DRSC06112		13792		3985		inactive
49	Dab (Disabled)	DRSC11140		8048		3971		inactive
50	CG9593	DRSC16508		12307		2356		inactive
51	Vha16-3 (Vacuolar H[+] ATPase 16kD subunit 3)	DRSC10872		5933		3893		inactive
52	MRP (Multidrug-Resistance like Protein 1)	DRSC02942		6871		2688		inactive
53	Arr2 (Arrestin 2)	DRSC09670		1373	5450	1074	3249	inactive
54	CG11807	DRSC06087		9016		2352		inactive
55	Jarid2 (Jumonji, AT rich interactive domain 2)	DRSC10372		9680		2281		inactive
56	CG13532	DRSC04174		3689	10034	758	3927	inactive
57	Ulp1	DRSC19339		3600	13591	826	3811	inactive
58	Got1 (Glutamate oxaloacetate transaminase 1)	DRSC07177		11092		3511		inactive
59	CG33223	DRSC17572		3088		741		inactive
60	eya (eyes absent)	DRSC03510		13106		5527		inactive
61	CG16957	DRSC02545		2918	5149	1248	2327	inactive
62	CG13016	DRSC06271		7619		1581		inactive
63	CG15056	DRSC19630		22620		10185		inactive
64	Ilp8 (Insulin-like peptide 8)	DRSC10076		6082		2560		inactive
65	Ssl (Suppressor of Stellate-like)	DRSC04657		2322	6851	728	2180	inactive
66	Sec16 (Secretory 16)	DRSC19788		17563		9533		inactive
67	Sec16 (Secretory 16)	DRSC19858		26496		14295		inactive
68	bcd + CR14578	DRSC20984		15908		8833		inactive
69	CG32812	DRSC18478		16443		10325		inactive
70	skd (skuld)	DRSC11898		12637		4836		inactive
71	CG10713	DRSC09786		7508		1623		inactive
72	CR42745 (retired record)	DRSC13756		3948		2490		inactive
73	Sgt (small glutamine-rich tetratricopeptide containing protein)	DRSC02812		8960		2181		inactive

Laid out differently: 9 of the entries above.
Gene	amplicon	reporter change call, replicate 1	firefly reporter light, replicate 1	firefly reporter light, replicate 2	Renilla control light, replicate 1	Renilla control light, replicate 2	activity call
CG15056	DRSC19630		22620		10185		inactive
Ilp8 (Insulin-like peptide 8)	DRSC10076		6082		2560		inactive
Ssl (Suppressor of Stellate-like)	DRSC04657		2322	6851	728	2180	inactive
Sec16 (Secretory 16)	DRSC19788		17563		9533		inactive
Sec16 (Secretory 16)	DRSC19858		26496		14295		inactive
bcd + CR14578	DRSC20984		15908		8833		inactive
CG32812	DRSC18478		16443		10325		inactive
skd (skuld)	DRSC11898		12637		4836		inactive
CG10713	DRSC09786		7508		1623		inactive
